We go through 21 molecules from PubChem BioAssay AID330 (DTP/NCI, 2004).

The test relates to P388 leukemia ip, CD2F1 mice, survival T/C. Briefly: NCI In Vivo Anticancer Drug Screen. Data for tumor model P388 Leukemia (intraperitoneal) in CD2F1 (CDF1) mice. The following applies: T/C endpoint: median survival time, higher T/C = longer survival.
[1] abbreviates: dose: 25.0 mg/kg/injection, schedule: Q01DX009 (ip), vehicle: other.
Where [2] appears, read: dose: 200.0 mg/kg/injection, schedule: Q01DX009 (ip), vehicle: saline with Tween-80.
The mark [3] stands for this setting: dose: 50.0 mg/kg/injection, schedule: Q01DX009 (ip), vehicle: saline with Tween-80.
Setting [4] is: dose: 200.0 mg/kg/injection, schedule: Q04DX003 (ip), vehicle: saline with Tween-80.
Setting [5] is: dose: 400.0 mg/kg/injection, schedule: Q04DX003 (ip), vehicle: saline with Tween-80.
[6] abbreviates: dose: 100.0 mg/kg/injection, schedule: Q01DX009 (ip), vehicle: saline with Tween-80.
Where [7] appears, read: dose: 100.0 mg/kg/injection, schedule: Q01DX005 (ip), vehicle: Klucel (hydroxypropylcellulose) (HPC).
The mark [8] stands for this setting: dose: 200.0 mg/kg/injection, schedule: Q01DX005 (ip), vehicle: Klucel (hydroxypropylcellulose) (HPC).
[9] abbreviates: dose: 200.0 mg/kg/injection, schedule: Q01DX005 (ip), vehicle: saline with Tween-80.

The list is a part of this screen's results and no random one: it is rich in T/C values a quarter to a half above the control, in often repeated tests (any T/C) and in doses without a T/C. Further doses and runs are listed elsewhere. T/C is the treated group as % of the vehicle group. Some entries give survivors of the animals treated and no T/C: the source holds a T/C of zero for them, seemingly a mark for toxic or unscored doses. Some survivor counts are full or nearly so, which does not show that the dose was tolerated: the source hardly ever lists a survival T/C far under the control, and the zero likely stands for such cases as well. Counts of survivors are from the toxicity check (mostly the fifth day) where no day follows; animals may have died later. Schedule codes are those of the source, taken here to give the interval after Q, in days (D) or hours (H), and the number of doses after X. Some doses were run more than once; the results are listed from low to high. Counts like (3×) give the number of equal values in this list. Where survival is the endpoint, the PubChem record calls one and a half times the control and up active, and a quarter to a half above the control has no call in these data; cut-offs in other NCI protocols can differ. Some T/C values are followed by the survivors on the day toxicity was checked, most often the fifth; without a count, all were alive then.

On to `CC(=O)OC1C2(CC3N4C(=O)C5(CO)SSC4(CC31O)C(=O)N5C)OC(C)C(C)(C)C2=O` (centres undefined), for which the survivor count is on record as 5 of 6 (dose: 1.25 mg/kg/injection, schedule: Q01DX009 (ip), vehicle: saline with Tween-80); 5 of 6 (dose: 2.5 mg/kg/injection, schedule: Q01DX009 (ip), vehicle: saline with Tween-80); 6 of 6 (dose: 2.5 mg/kg/injection, schedule: Q01DX009 (ip), vehicle: saline); 1 of 6 (dose: 5.0 mg/kg/injection, schedule: Q01DX009 (ip), vehicle: saline with Tween-80); 0 of 6 (dose: 5.0 mg/kg/injection, schedule: Q01DX009 (ip), vehicle: saline); 2 of 6 (dose: 6.25 mg/kg/injection, schedule: Q01DX009 (oral), vehicle: saline). Further, the survivor count is, setting by setting: (dose: 10.0 mg/kg/injection, schedule: Q01DX009 (ip), vehicle: saline with Tween-80) 2 of 6; (dose: 10.0 mg/kg/injection, schedule: Q01DX009 (ip), vehicle: saline) 0 of 6; (dose: 25.0 mg/kg/injection, schedule: Q01DX009 (oral), vehicle: saline) 0 of 6.
As for `CNC(=O)OCc1c(COC(=O)NC)c(-c2ccc(OC)cc2)n2c1CCC2`, the T/C is 132 % of control (dose: 12.5 mg/kg/injection, schedule: Q01DX009 (ip), vehicle: Klucel (hydroxypropylcellulose) (HPC)); 132 % of control (dose: 25.0 mg/kg/injection, schedule: Q01DX009 (ip), vehicle: Klucel (hydroxypropylcellulose) (HPC)); 127 and 131 % of control (dose: 50.0 mg/kg/injection, schedule: Q01DX009 (ip), vehicle: Klucel (hydroxypropylcellulose) (HPC)); 125 and 129 % of control (dose: 100.0 mg/kg/injection, schedule: Q01DX009 (ip), vehicle: Klucel (hydroxypropylcellulose) (HPC)). For the same molecule, the survivor count (dose: 200.0 mg/kg/injection, schedule: Q01DX009 (ip), vehicle: Klucel (hydroxypropylcellulose) (HPC)) was 5 of 6.
As to `N#C/C(=N\Nc1ccc(Cl)cc1)C(=O)C1CC1`, the survivor count runs as follows: (dose: 120.0 mg/kg/injection, schedule: Q01DX005 (ip), vehicle: Klucel (hydroxypropylcellulose) (HPC)) 0 of 6; (dose: 240.0 mg/kg/injection, schedule: Q01DX005 (ip), vehicle: Klucel (hydroxypropylcellulose) (HPC)) 0 of 6.
With `COc1ccc([N+](=O)[O-])c(OC(C)=O)c1OC`, the survivor count under setting [1] was 6 of 6.
In the case of `CCN(CC)CCNc1cc(C)nc2c1ccc1c2ccc2c(NCCN(CC)CC)cc(C)nc21`, the survivor count (dose: 100.0 mg/kg/injection, schedule: Q01DX009 (ip), vehicle: water) was 0 of 6.
Consider `C/C(=N\O)C(C)(O)C(C)(C)C` (centres undefined), for which the survivor count under setting [2] was 5 of 6.
For `C=CC(=O)NCNC(=O)C=C`, the T/C runs as follows: under setting [3], 140 % of control; (dose: 100.0 mg/kg/injection, schedule: Q04DX003 (ip), vehicle: saline sonified) 131 % of control; under setting [4], 140 % of control. Moreover, the survivor count under setting [2] is 6 of 6 and the survivor count (dose: 400.0 mg/kg/injection, schedule: Q04DX003 (ip), vehicle: saline sonified) was 4 of 6.
On to `COC(=O)c1cc(=O)n(-c2ccc(OC)cc2)c(SC)n1`, for which the survivor count under setting [5] was 4 of 6.
Same read-out and setting: to `CCN(CC)S(=O)(=O)c1ccc(OC)c(N)c1` belongs 4 of 6.
On to `O=[N+]([O-])c1cn[n+]([O-])c2ccccc12`, for which the T/C (dose: 25.0 mg/kg/injection, schedule: Q01DX009 (ip), vehicle: saline with Tween-80) was 130 and 138 % of control; the T/C under setting [3] is 142 % of control. The survivor count reads like this: under setting [6], 1 of 6 and 4 of 6; under setting [2], 0 of 6.
`N=C(N)SCc1c2ccccc2cc2ccccc12`: the T/C is 136 % of control under setting [3], 136 % of control under setting [6], 131 % of control under setting [4] and 127 % of control [5 of 6 alive] under setting [5]. Besides, under setting [2], the survivor count is given as 6 of 6.
With `CNC(=O)OCc1c(COC(=O)NC)c(-c2cccc(F)c2F)n2c1CCC2`, the T/C by setting is: (dose: 3.13 mg/kg/injection, schedule: Q01DX009 (ip), vehicle: distilled water + Tween-80) 134 % of control; (dose: 6.25 mg/kg/injection, schedule: Q01DX009 (ip), vehicle: distilled water + Tween-80) 131 % of control; (dose: 12.5 mg/kg/injection, schedule: Q01DX009 (ip), vehicle: distilled water + Tween-80) 149 % of control. Besides, the survivor count (dose: 50.0 mg/kg/injection, schedule: Q01DX009 (ip), vehicle: distilled water + Tween-80) was 2 of 6 (2×); the survivor count (dose: 100.0 mg/kg/injection, schedule: Q01DX009 (ip), vehicle: distilled water + Tween-80) is given as 0 of 6; the survivor count (dose: 200.0 mg/kg/injection, schedule: Q01DX009 (ip), vehicle: distilled water + Tween-80) is on record as 0 of 6.
In the case of `COc1cc([C@@H]2c3cc4c(cc3[C@H](O)[C@H]3COC(=O)[C@@H]23)OCO4)cc(OC)c1OC`, under “dose: 15.0 mg/kg/injection, schedule: Q01DX010 (ip), vehicle: saline”, the T/C is 127 % of control. In addition, the survivor count was 2 of 6 (dose: 60.0 mg/kg/injection, schedule: Q01DX010 (ip), vehicle: saline) and 2 of 6 (dose: 120.0 mg/kg/injection, schedule: Q01DX010 (ip), vehicle: saline).
As to `C=C(C)C1CC=C(C)C(CCC2C(=C)CCC3C(C)(C)C(OC4OC(CO)C(O)C(O)C4NC(C)=O)CCC23C)C1(C)CCC(=O)O` (centres undefined), the survivor count (dose: 286.0 mg/kg/injection, schedule: Q01DX005 (ip), vehicle: Klucel (hydroxypropylcellulose) (HPC)) is listed as 0 of 6.
As for `C=C1C(=O)OC2/C=C(\CO)C3OC3C3OC3(C)CC(OC(=O)/C(=C/C)COC(C)=O)C12` (centres undefined), the survivor count runs as follows: under setting [7], 0 of 6; under setting [8], 0 of 6.
`C=C([Se]c1ccccc1)C(C)(C)C`: under setting [2], the survivor count is listed as 5 of 6.
For `c1ccc(P(CCNCCP(c2ccccc2)c2ccccc2)c2ccccc2)cc1`, the T/C reads like this: (dose: 50.0 mg/kg/injection, schedule: Q01DX005 (ip), vehicle: saline with Tween-80) 133 % of control; (dose: 100.0 mg/kg/injection, schedule: Q01DX005 (ip), vehicle: saline with Tween-80) 135 % of control [5 of 6 alive]; under setting [9], 129 % of control. Moreover, the survivor count under setting [9] was 2 of 6 and the survivor count (dose: 400.0 mg/kg/injection, schedule: Q01DX005 (ip), vehicle: saline with Tween-80) is 1 of 6.
With `Cc1cc(N/N=C/c2ccc([N+](=O)[O-])cc2)c2cc3c(cc2n1)OCO3`, the survivor count is, setting by setting: under setting [7], 1 of 6; under setting [8], 0 of 6.
With `C(=C\c1cc2cc(C3=NCCN3)ccc2[nH]1)/c1ccc(C2=NCCN2)cc1`, where the note is “dose: 25.0 mg/kg/injection, schedule: Q04DX003 (ip), vehicle: saline”, the T/C is 127 and 132 % of control. The survivor count was 3 of 6 (dose: 100.0 mg/kg/injection, schedule: Q04DX003 (ip), vehicle: saline); 0 of 6 (dose: 200.0 mg/kg/injection, schedule: Q04DX003 (ip), vehicle: saline); 0 of 6 (dose: 400.0 mg/kg/injection, schedule: Q04DX003 (ip), vehicle: saline).
Turning to `Cc1cc(NCCCCCCCNc2cc(C)nc3cc(N)ccc23)c2ccc(N)cc2n1`, the T/C (dose: 0.78 mg/kg/injection, schedule: Q01DX009 (ip), vehicle: other) is 147 % of control. The survivor count by setting is: under setting [1], 2 of 6 and 3 of 6; (dose: 50.0 mg/kg/injection, schedule: Q01DX009 (ip), vehicle: other) 0 of 6; (dose: 100.0 mg/kg/injection, schedule: Q01DX009 (ip), vehicle: other) 0 of 6.
As to `COC(=O)c1nc(N)nc(C(=O)OC)c1C(=O)C(C)(C)C`, the survivor count (dose: 240.0 mg/kg/injection, schedule: Q01DX005 (ip), vehicle: saline with Tween-80) is given as 0 of 6.
